Assay results published in article PMC11407059.
No constants are given. Whether binding was seen depends on the method and setting. In cells and extracts the contact can be indirect. Some entries that bind do so weakly or less than the wild type. For part of these data: Where a sequence is shown, tags or fusion partners need not be part of it. One block for each binder: values may come before it.

Protein sequences, listed by entry. Tags and fused reporters are not part of them.
UniProt Q86WV6: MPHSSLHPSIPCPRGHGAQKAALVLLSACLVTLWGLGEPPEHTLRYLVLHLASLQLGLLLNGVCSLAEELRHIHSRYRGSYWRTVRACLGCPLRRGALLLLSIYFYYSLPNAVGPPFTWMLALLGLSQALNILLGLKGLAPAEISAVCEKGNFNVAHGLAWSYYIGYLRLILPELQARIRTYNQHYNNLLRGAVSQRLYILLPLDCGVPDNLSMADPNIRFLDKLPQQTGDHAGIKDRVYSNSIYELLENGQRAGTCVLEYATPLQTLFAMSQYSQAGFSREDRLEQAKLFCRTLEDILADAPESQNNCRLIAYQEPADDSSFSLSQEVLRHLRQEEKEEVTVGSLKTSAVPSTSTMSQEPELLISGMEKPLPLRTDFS

Experiments:
[1] = target: HA-STING (exogenously expressed STING) (UniProt Q86WV6); assay: co-IP; exogenously expressed tagged proteins in transfected cells; IP lysis buffer, 1 ug antibody overnight at 4 °C, protein A/G beads 2 h, western blot; in Fig. 4F with or without overexpressed HA-NSDHL
[2] = target: endogenously expressed STING (human (endogenous in cholangiocarcinoma cells)) (UniProt Q86WV6); assay: co-IP; endogenous proteins in cholangiocarcinoma cell lysate; anti-STING antibody (stated for Fig. 3D and 4E), protein A/G beads, western blot
GST-STING fusion protein = GST-STING fusion protein (UniProt Q86WV6); assay: pull-down; 10 ug GST-STING fusion protein added to cholangiocarcinoma cell lysate supernatant overnight at 4 °C, glutathione Sepharose 4B beads 4 h, washed in 50 mM Tris-HCl pH 8.0, 150 mM NaCl, 1 % NP-40; western blot; only the target purified

- binding [1]: binds
B1: Flag-NSDHL (exogenously expressed NSDHL) (enzyme, UniProt Q15738 1-373)
chain: MEPAVSEPMRDQVARTHLTEDTPKVNADIEKVNQNQAKRCTVIGGSGFLGQHMVEQLLARGYAVNVFDIQQGFDNPQVRFFLGDLCSRQDLYPALKGVNTVFHCASPPPSSNNKELFYRVNYIGTKNVIETCKEAGVQKLILTSSASVIFEGVDIKNGTEDLPYAMKPIDYYTETKILQERAVLGANDPEKNFLTTAIRPHGIFGPRDPQLVPILIEAARNGKMKFVIGNGKNLVDFTFVENVVHGHILAAEQLSRDSTLGGKAFHITNDEPIPFWTFLSRILTGLNYEAPKYHIPYWVAYYLALLLSLLVMVISPVIQLQPTFTPMRVALAGTFHYYSCERAKKAMGYQPLVTMDDAMERTVQSFRHLRRVK

- binding [2]: binds
- binding (GST-STING fusion protein): binds
B2: endogenously expressed NSDHL (enzyme, UniProt Q15738 1-373)
chain: B1 chain
